Test results reported in patent US20140135474A1 (PROTELICA, published 2014).
Numbering of substitutions follows the chain as printed. No constants are given. Whether binding was seen depends on the method and setting. Some results given as binding are weak or reduced against the parent protein; the word gives no strength.

T1: VEGF (UniProt P15692-9 27-147, limits assumed)
T1 construct: Only the selection names the 121 isoform; also called VEGF(121)
T1 sequence (looked up): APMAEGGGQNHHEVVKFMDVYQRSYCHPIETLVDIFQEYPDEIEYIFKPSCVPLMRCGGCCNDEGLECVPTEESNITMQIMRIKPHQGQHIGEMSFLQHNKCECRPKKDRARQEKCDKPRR

B1: R1 D4 anti-VEGF (designed binder)
chain: NVSPPRRARVTDATETTITIPWEVAGGPIISFQVDAVPANGQTPIQRTITPDATGYTITGLQPGTDYKIYLYTLNDNARSSPVVIDAST
notes: 14FN3 variant; on phage in phage ELISA, soluble His-tagged protein in Octet
B2: R1 F1 anti-VEGF (designed binder)
chain: B1 chain with E23A, V24L, A53I, T54R

Assays:
[1] = target: T1, VEGF; assay: Octet biolayer interferometry, soluble R1D4 on VEGF
[2] = target: T1, VEGF; assay: phage ELISA
[3] = target: T1, VEGF; assay: phage ELISA (OD450); wells with VEGF, TNF alfa or 2%MPBS only

Binder	binding [1]	binding [2]	binding [3]
B1	binds	binds	binds
B2		binds	binds
